One test concerns the target T1, GST-tagged WWOX (UniProt Q9NZC7).
T1 sequence: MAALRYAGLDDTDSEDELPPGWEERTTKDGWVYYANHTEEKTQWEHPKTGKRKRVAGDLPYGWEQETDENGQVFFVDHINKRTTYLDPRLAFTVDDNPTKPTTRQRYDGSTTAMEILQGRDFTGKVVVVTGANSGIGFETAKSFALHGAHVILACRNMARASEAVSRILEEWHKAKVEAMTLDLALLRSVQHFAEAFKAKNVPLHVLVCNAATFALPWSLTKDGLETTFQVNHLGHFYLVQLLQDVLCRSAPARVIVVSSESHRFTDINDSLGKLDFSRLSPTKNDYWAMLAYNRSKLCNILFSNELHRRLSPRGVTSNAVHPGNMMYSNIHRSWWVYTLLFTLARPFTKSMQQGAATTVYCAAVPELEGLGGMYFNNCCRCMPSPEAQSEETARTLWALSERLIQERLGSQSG
In words: pull-down.

Sequences of proteins named here, by UniProt entry; tags and fusion partners are left off.
UniProt P56693: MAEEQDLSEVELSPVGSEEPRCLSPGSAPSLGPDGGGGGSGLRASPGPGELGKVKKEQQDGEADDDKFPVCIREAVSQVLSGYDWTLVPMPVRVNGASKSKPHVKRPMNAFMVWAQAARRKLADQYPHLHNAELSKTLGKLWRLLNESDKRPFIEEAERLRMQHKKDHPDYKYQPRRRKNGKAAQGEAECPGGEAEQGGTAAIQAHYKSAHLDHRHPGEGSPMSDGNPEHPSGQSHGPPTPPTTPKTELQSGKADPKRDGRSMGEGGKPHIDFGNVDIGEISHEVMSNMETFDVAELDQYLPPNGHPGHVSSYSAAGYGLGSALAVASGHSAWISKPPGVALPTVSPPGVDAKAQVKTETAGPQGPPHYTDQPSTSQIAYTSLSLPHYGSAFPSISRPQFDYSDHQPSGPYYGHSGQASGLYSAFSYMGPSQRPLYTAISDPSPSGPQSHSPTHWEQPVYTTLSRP
UniProt Q04888: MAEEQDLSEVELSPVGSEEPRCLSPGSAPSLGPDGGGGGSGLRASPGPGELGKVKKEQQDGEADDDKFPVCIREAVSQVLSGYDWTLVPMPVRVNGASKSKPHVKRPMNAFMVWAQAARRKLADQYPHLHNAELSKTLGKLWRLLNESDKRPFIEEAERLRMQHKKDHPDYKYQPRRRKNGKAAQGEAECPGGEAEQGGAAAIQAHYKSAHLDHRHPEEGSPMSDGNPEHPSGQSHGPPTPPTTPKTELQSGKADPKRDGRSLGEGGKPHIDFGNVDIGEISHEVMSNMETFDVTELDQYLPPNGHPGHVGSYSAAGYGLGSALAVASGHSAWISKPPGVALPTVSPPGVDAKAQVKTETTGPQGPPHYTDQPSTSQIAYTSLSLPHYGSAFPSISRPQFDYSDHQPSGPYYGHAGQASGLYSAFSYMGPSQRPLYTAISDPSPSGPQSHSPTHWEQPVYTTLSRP

In test [1] the target is T2, HA-tagged WWOX (knock-in mouse) (mouse (endogenous in cortex of the HA-Wwox knock-in mouse)) (UniProt Q91WL8).
T2 sequence: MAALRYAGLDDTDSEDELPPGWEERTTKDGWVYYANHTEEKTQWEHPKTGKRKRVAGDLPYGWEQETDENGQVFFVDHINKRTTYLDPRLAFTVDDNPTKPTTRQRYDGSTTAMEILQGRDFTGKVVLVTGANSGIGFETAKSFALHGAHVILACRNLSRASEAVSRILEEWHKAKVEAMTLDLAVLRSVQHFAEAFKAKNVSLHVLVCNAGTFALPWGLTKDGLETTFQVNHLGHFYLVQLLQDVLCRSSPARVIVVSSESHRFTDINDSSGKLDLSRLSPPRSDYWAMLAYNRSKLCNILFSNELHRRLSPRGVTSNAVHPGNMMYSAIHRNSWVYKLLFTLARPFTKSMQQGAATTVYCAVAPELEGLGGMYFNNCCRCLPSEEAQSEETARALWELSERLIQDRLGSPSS
In words: co-IP.

These are yes or no findings as the source states them, for the method shown. Binding seen in cells or lysates may run through a third protein. Some binding calls cover weakened binding; strength is not graded here. Sequences can lack the tags named with a protein.

For “SOX10 (doxycycline-inducible plasmid, Addgene #115241) (from UniProt P56693 1-466)”, the binding entry with GST-tagged WWOX is reported as “binds”.

In the case of “SOX10 (endogenous, mouse cortex) (from UniProt Q04888 1-466)”, the binding entry in test [1] is “binds”.

Values taken from publication doi:10.1101/2025.11.22.689900.
